From PubChem BioAssay AID1671190 (National Center for Advancing Translational Sciences (NCATS), 2021)
The whole screen tested about 580,000 compounds, of which about 6,100 (1.1%) were called active. The shares of active, inactive and inconclusive entries below differ from those in the screen. Calls follow the shape of the dose curve; as a rule, active = well fitted inhibition curve with a large enough effect; inconclusive = small, poorly fitted or top-dose-only effect, or another doubt; inactive = no such curve, though single readings can be large or run the other way. Potencies beside an inconclusive call are fits to weak or partial responses and may not hold up.
% is scaled to controls: 0 for no effect and ±100 for the full control effect; potency is read from the fitted curve at half-maximal effect.

By UniProt entry, the sequences of proteins in these tests, tags left out. Where a name states a change or a piece, a line headed by the entry shows the natural chain unless it says otherwise.
UniProt P18054: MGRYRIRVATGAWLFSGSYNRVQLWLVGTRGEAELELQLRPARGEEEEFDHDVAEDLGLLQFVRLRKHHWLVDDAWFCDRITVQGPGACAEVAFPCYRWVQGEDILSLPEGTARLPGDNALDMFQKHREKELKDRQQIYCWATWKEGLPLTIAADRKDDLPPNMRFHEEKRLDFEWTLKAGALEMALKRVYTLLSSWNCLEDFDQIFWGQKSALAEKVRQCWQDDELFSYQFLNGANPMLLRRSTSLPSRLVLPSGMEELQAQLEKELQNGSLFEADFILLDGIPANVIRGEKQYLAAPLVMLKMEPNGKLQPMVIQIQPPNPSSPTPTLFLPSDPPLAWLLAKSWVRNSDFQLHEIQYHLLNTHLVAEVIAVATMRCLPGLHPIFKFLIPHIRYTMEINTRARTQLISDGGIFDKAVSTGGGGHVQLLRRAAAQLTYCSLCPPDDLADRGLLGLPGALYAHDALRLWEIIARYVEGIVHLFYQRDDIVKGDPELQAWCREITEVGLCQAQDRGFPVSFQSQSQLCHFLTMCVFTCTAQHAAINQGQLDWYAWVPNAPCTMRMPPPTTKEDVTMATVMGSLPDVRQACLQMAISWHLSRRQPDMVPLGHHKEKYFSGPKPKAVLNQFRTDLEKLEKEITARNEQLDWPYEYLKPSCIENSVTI

These compounds were tested against Polyunsaturated fatty acid lipoxygenase ALOX12 (Homo sapiens) (UniProt P18054) (assay: Primary qHTS assay for inhibitors of human arachidonate 12S-lipoxygenase (ALOX12): Round 2). Settings: purified 12hLO, xylenol orange hydroperoxide absorbance; activity change, negative = inhibition: at 108 µM (top of the series) unless noted.
How it was run: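 Purified human 12hLO at 150 nM in 25 mM Hepes, 0.01% Triton X-100, pH 7.0, preincubated 15 min at room temperature with compound. Reaction started with 40 uM arachidonic acid, 30 min at room temperature. Hydroperoxide measured by Fe-xylenol orange, 573/405 nm absorbance ratio.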
With `CCCNc1nc2ccccc2nc1C(=O)Nc1cc(OC)c(OC)c(OC)c1` the Potency was inconclusive: 89.1 µM [inhibitor, partial curve, poor fit]. For `COc1cccc(OC)c1C(=O)NC(=S)Nc1ccc2c(c1)OCCO2`, the Potency was inconclusive: 35.5 µM [inhibitor, full curve, poor fit]. For `CCCNC(=O)c1cc(C2CCCN(S(=O)(=O)c3cccc4cccnc34)C2)on1` (stereo unspecified), the Potency was inconclusive: 5.62 µM [inhibitor, full curve, poor fit]. For `COc1ccc(N2C(=O)CC(NC3CCCCNC3=O)C2=O)cc1` (stereo unspecified), the Potency was inconclusive: 1.12 µM [inhibitor, partial curve, poor fit]. For `O=C(c1ccc(F)cc1)N1CCC(C(=O)N(Cc2ccccc2)c2ccccc2)CC1`, the Potency was “inactive”. In the case of `CCOC(=O)C1=C(CN(C)Cc2ccccc2)NC(=O)NC1c1ccc(OC(C)C)cc1` (stereo unspecified), the Potency is reported as “inactive”. `O=C1CCCC2=C1C(c1ccc(Cl)cc1Cl)n1nnnc1N2` (stereo unspecified) was tested, and the Potency was inconclusive: 126 µM [inhibitor, single point]. With `COc1ccc(Br)c2oc(SC)cc(=O)c12` the Potency was inconclusive: 50.1 µM [inhibitor, partial curve, poor fit]. For `COC(=O)Cn1cc(/C=C/c2cc[n+](C)cc2)c2ccccc21`, the Potency was inconclusive: 50.1 µM [inhibitor, partial curve, poor fit]. For `COc1ccc(NC(=O)C2(c3ccc(NC(=O)c4ccc(C)cc4)cc3)CCCC2)cc1`, the Potency was inconclusive: 79.4 µM [inhibitor, partial curve, poor fit]. With `Cc1cccnc1C(NC(=O)C1CCN(Cc2ccccc2)CC1)c1ccc(F)cc1` (stereo unspecified) the Potency was “inactive”. In the case of `Fc1cccc(-c2cc3cnc(Nc4ccc(C(F)(F)F)cc4)cc3[nH]2)c1`, the Potency is reported as inconclusive: 89.1 µM [inhibitor, single point]. For `CC1(C)CC(=NO)CC(C)(C)N1`, the Potency was inconclusive: 50.1 µM [inhibitor, partial curve, poor fit]. In the case of `CC(C)CNc1nc(-c2ccc(Cl)cc2)c(CC(=O)O)s1`, the Potency is reported as inconclusive: 10 µM [inhibitor, full curve]. In the case of `COc1ccc(Oc2ncc3ncc(=O)n(Cc4cccs4)c3n2)cc1`, the Potency is reported as inconclusive: 126 µM [inhibitor, single point]. With `Clc1cccc(N/N=C(/c2ccccc2)c2ccncc2)c1` the Potency was active: 39.8 µM. With `COCCCNc1nc2ccccc2nc1NS(=O)(=O)c1ccccc1` the Potency was inconclusive: 70.8 µM [inhibitor, partial curve, poor fit]. In the case of `CCn1c(=O)c(C(=O)NNC(=O)c2ccccc2Br)c(O)c2ccccc21`, the Potency is reported as inconclusive: 126 µM [inhibitor, single point]. In the case of `CC1CN(C(C)C)C(C)CC1OC(=O)c1ccccc1` (stereo unspecified), the Potency is reported as inconclusive: 0.316 µM [inhibitor, full curve, poor fit]. In the case of `CC1=NN(c2ccc(C(=O)OC(C)C)cc2)C(=O)/C1=C\C=C\c1ccco1`, the activity change, negative = inhibition is reported as inconclusive: -30.3% [inhibitor]. With `Cc1ccc(Sc2cc(C(=O)NCCN(C)C)c3ccccc3n2)cc1` the Potency was inconclusive: 56.2 µM [inhibitor, partial curve, poor fit]. `Cn1nnnc1Sc1ncnc2scc(-c3ccccc3C(F)(F)F)c12` was tested, and the Potency was inconclusive: 35.5 µM [inhibitor, partial curve, poor fit]. With `O=C(Nc1ccc(Cl)cc1)N1CCCC(c2nn(-c3ccc(Cl)cc3)c(=O)[nH]2)C1` (stereo unspecified) the Potency was inconclusive: 14.1 µM [inhibitor, full curve]. In the case of `COc1ccc(S(=O)(=O)N2CCC(C(=O)NCCC(=O)NCc3ccccc3OC)CC2)cc1`, the Potency is reported as “inactive”. `O=C(c1cccc(S(=O)(=O)N2CCOCC2)c1)N(Cc1ccco1)Cc1cccs1` was tested, and the Potency was “inactive”. With `Cc1nc2ccccn2c1C(=O)NNS(=O)(=O)c1ccc(Cl)cc1` the Potency was inconclusive: 31.6 µM [inhibitor, single point]. With `COc1cccc(C2NC(=S)NC(C)=C2C(=O)c2ccccc2)c1OC` (stereo unspecified) the Potency was active: 44.7 µM. In the case of `COc1cc(Cl)cc(CN2CCC3(CCCNC3)C2)c1OC` (stereo unspecified), the Potency is reported as inconclusive: 7.94 µM [inhibitor, full curve]. In the case of `Oc1ccc(Cl)cc1CNc1cccc2cccnc12`, the Potency is reported as inconclusive: 4.47 µM [inhibitor, full curve, poor fit]. In the case of `O=C(NC[C@H]1OC[C@@H](NC2CCCC2)[C@@H]1O)Nc1ccccc1`, the Potency is reported as inconclusive: 22.4 µM [inhibitor, full curve, poor fit]. `COc1ccc(-c2cc(NC(C)=O)c3ncc(-c4cccc(C(C)=O)c4)n3c2)cc1OC` was tested, and the Potency was inconclusive: 89.1 µM [inhibitor, single point]. `CCOC(=O)C1CCN(C(=O)c2cc3c(C)cc(C)cc3[nH]2)CC1` was tested, and the Potency was inconclusive: 50.1 µM [inhibitor, partial curve, poor fit]. In the case of `O=C(Nc1ccc2c(c1)CCC2)C1(c2ccc(F)cc2)CCC1`, the Potency is reported as inconclusive: 63.1 µM [inhibitor, partial curve, poor fit]. In the case of `COC(=O)c1ccc(CN2C(=O)[C@@H]3C[C@@H](O)CN3C3(CN(Cc4ccccc4F)C3)C2=O)cc1`, the Potency is reported as “inactive”. In the case of `CC(=O)N1CCN(CC(O)COc2ccc(S(=O)(=O)N3CCOCC3)cc2)CC1` (stereo unspecified), the Potency is reported as inconclusive: 28.2 µM [inhibitor, single point]. In the case of `Cc1ccc(S(=O)(=O)C(C)C(=O)c2ccc(Br)cc2)cc1` (stereo unspecified), the Potency is reported as inconclusive: 44.7 µM [inhibitor, partial curve, poor fit]. In the case of `NC(=S)NNc1ccccc1`, the Potency is reported as inconclusive: 11.2 µM [inhibitor, full curve, poor fit]. `NC(=O)C1CCCN(C(=O)c2ccc3c(c2)NC(=O)CS3)C1` (stereo unspecified) was tested, and the Potency was inconclusive: 89.1 µM [inhibitor, single point]. With `O=C(O)c1ccccc1C(=O)Nc1cccc([N+](=O)[O-])c1` the Potency was “inactive”. In the case of `CCN(c1ccc(NC(=O)COC(=O)c2ccc3ccccc3n2)cc1)C(C)C`, the Potency is reported as active: 5.01 µM. In the case of `COc1ccc(S(=O)(=O)Nc2cc(C)ccn2)cc1`, the Potency is reported as inconclusive: 141 µM [inhibitor, partial curve, poor fit]. For `COc1ccc(C2=NOC3(CC(=O)N(c4ccc(C)cc4)C3=O)C2)c(OC)c1` (stereo unspecified), the Potency was inconclusive: 50.1 µM [inhibitor, partial curve, poor fit]. For `COC(=O)CCn1c(SC(C)C(=O)c2ccccc2)nc2ccccc2c1=O` (stereo unspecified), the Potency was inconclusive: 112 µM [inhibitor, single point]. `O=C(C(=O)N1CCc2[nH]nc(-c3ccccc3F)c2C1)c1ccco1` was tested, and the Potency was inconclusive: 7.94 µM [inhibitor, partial curve, poor fit]. For `N#CCCn1cc(/C=N/O)c(-c2ccc(Cl)cc2)n1`, the Potency was inconclusive: 56.2 µM [inhibitor, partial curve, poor fit]. For `CC(C)c1noc([C@H]2C[C@@H]3C(=O)NCCCCCCN(C(=O)Cc4ccccc4)[C@@H]3C2)n1`, the Potency was “inactive”. For `COc1ccccc1N1CCN(C(=O)c2[nH]c(C(F)(F)F)nc2-c2ccccc2)CC1`, the Potency was “inactive”. In the case of `CNC(=O)[C@@H]1C[C@H](n2cc(CN(C)C(=O)Nc3ccccc3)nn2)CN1`, the Potency is reported as “inactive”. `CCCCn1nc(C(=O)Nc2cc(Cl)ccc2C)c2ccccc2c1=O` was tested, and the Potency was “inactive”. With `CCCn1nc(C(=O)Nc2nc(-c3ccc(OC)cc3)cs2)c2ccccc2c1=O` the Potency was “inactive”. For `Cc1ccc(NCc2nnc(SCC(N)=O)n2CC2CCCO2)c(C)c1` (stereo unspecified), the Potency was “inactive”. `Cc1ccc(NC(=O)CSCc2nc3ccccc3c(=O)[nH]2)cc1` was tested, and the Potency was “inactive”. `Cc1c(Cl)cccc1NC(=S)NC(=O)c1ccccc1` was tested, and the Potency was inconclusive: 5.01 µM [inhibitor, partial curve, poor fit]. `Cc1ccc(-n2cc(CN3CCC(CO)(Cc4cccc(C(F)(F)F)c4)CC3)cn2)cc1` was tested, and the Potency was inconclusive: 44.7 µM [inhibitor, partial curve, poor fit]. For `N#C/C(=C\c1ccc([N+](=O)[O-])o1)C(=O)Nc1ccc(F)cc1`, the Potency was active: 44.7 µM. With `COc1ccc(-c2cn[nH]c2-c2ccc(OCC(=O)NN)cc2O)cc1` the Potency was inconclusive: 0.501 µM [inhibitor, full curve, poor fit]. In the case of `CCc1cccc(OCCCCNCCOC)c1`, the Potency is reported as inconclusive: 0.398 µM [inhibitor, full curve, poor fit]. In the case of `CCn1cnc2cc(NC(=O)c3ccc(C)cc3)ccc21`, the Potency is reported as inconclusive: 35.5 µM [inhibitor, full curve, poor fit]. `COc1ccc(N2CC(C(=O)Nc3ccccc3-c3nc(-c4ccc(C)cc4)no3)CC2=O)cc1` (stereo unspecified) was tested, and the Potency was “inactive”. `CC(C)(CO)[C@@H](O)C(=O)NCCC(=O)O` was tested, and the Potency was inconclusive: 38.5 µM [inhibitor, single point]. `CCOc1ccc(CSCCNC(=S)Nc2ccccc2)cc1` was tested, and the Potency was active: 44.7 µM. `C#CCNC(=O)COC(=O)c1cccnc1Nc1cccc(C(F)(F)F)c1` was tested, and the Potency was inconclusive: 44.7 µM [inhibitor, partial curve, poor fit]. For `CN(C)C(=O)c1cccc(-c2cnc3c(NC=O)cc(-c4ccccc4N(C)C)cn23)c1`, the Potency was inconclusive: 39.8 µM [inhibitor, partial curve, poor fit]. `CC(NCc1cccs1)C(=O)Nc1cc(Cl)cc(Cl)c1` (stereo unspecified) was tested, and the Potency was inconclusive: 0.398 µM [inhibitor, full curve, poor fit]. In the case of `CC1COC(=O)C(NNc2ccc(Cl)c(Cl)c2)=N1` (stereo unspecified), the Potency is reported as inconclusive: 6.31 µM [inhibitor, partial curve, poor fit]. `C[C@@]12CO[C@@H](CNC(=O)C3CCCC3)O[C@@H]1CC[C@]1(C)[C@@H]2CC[C@@H](O)[C@H]1CC(=O)NCc1ccc(F)cc1` was tested, and the Potency was “inactive”.
